Test results from doi:10.1101/684258.

Key:
Assay in all cases: affinity purification with mass spectrometry
[1] = biological target: TRAPP-interacting plant protein fused to YFP (35S:TRIPP-YFP in tripp-1) (Arabidopsis thaliana)
[2] = biological target: TRAPP-interacting plant protein fused to YFP (35S:TRIPP-YFP in tripp-1) (Arabidopsis thaliana); remark: listed apart in the source
[3] = biological target: AtTRS33-YFP (35S-TRS33-YFP) (Arabidopsis thaliana)

| Molecule | binding [1] | binding [2] | binding [3] |
| --- | --- | --- | --- |
| BET5, endogenous (from UniProt Q9SYB8) | binds |  |  |
| TRAPPC11, endogenous (from UniProt F4JXM9) | no binding |  |  |
| TRS20, endogenous (from UniProt F4HTY0) | binds |  |  |
| AtTRS120, endogenous (protein, UniProt Q9FY61 1-1186) MEPDVSIETLSIIRIAVLPIGTIPPTLLRDYHSMLLRHHTIALSAISSFYTEHQKSPFTNQPWDSGSLRFKFVLGGSPPSPWEDFQSNRKMLAVIGLCHCPSSPDLDSVTEKFNVACKSYSSALVRRCFAFSPGDSQLEDGDKKGENLILFPPSDKQTQEFHLQTMMQDIAASLLMEFEKWVLQAESAGTILKTPLDSQASLNSEEVIKAKKRRLGRAQKTIGDYSLLAGSPVDANAHYSTALELARLTGDYFWYAGALEGSVCALLVDRMGQRDVALEDEVRYRYTNVILHYRKSFIQEIAQRVSPLSFELEATLKLARFLCRRELAKEVVELLTNAADGAKSLIDASDRLILYVEVARLFGALGYQRKAAFFCRQVAQLYLQQDNRLAAISAMQVLSMTTDAYRIQSRASMSKVSVNNETGRLPDAGKMHHHSIVSLFESHWSTLQMVVLREILLSAVRAGDPLAAWSAAARLLRWHYPLITPSGQNGLANSLANSADRLPSGTRCADPALPFVRLFSFPLHSSQVDIVKRNPAREDWWTGSAPSGPFIYTPFSKGDANESSKQELIWVVGEPVQVLVELANPCCFDLRIDSIYLSAHSSNFDAFPVSVDIPPNSAKVITLSGIPTAVGPVTIPGCTVHCFGVITEHVFRDVDNLLLGAAQGLVFSDPFRSCGSAKLRHVFVPNISVAPPLPLLVANVVGGDGAIILYEGEIREVCINFANAGTVPIVQAHVSLSGKNQDAVISIADEALQSALPLKPGAQVTLPVTLKAWHVGPTDSDNTMSSGRNAAGNTGRPKDGTSPSLLIHYAGPLSNNGDSQEKESIVPPGRRLVVPLQICVLQGLSFVKARLLSMEIPAHVSDNLRDEDIERESNADSLVKINPFRGSWGLRFLELELSNPTDVVFEISVFVQLENSAKEDDSSPVQDSPEYEYPKTRIDRDYSARVLIPLEHFKLPVLDGSFFTKDPPPGSPSSSRNPSFSEKNTKAEINTLIKNLISKIKVRWQSGRNSSGELDIKDAIQTALQTTVMDVLLPDPLTFGFRLVRNGLEKDPETKAESPFSKGSVLSHEVTPMEVLVRNNTSEAIKLNLSVTCRDVAGQNCTEGADATVLWAGALSGISMEVAPLQEARHCFSLFFLVPGEYTMVAAAVIEDANNVLRARAGTASPNEPIFCRGPPFHVCVAGGAL |  | binds | binds |

More lines, now with the values ahead:

| binding [1] | binding [2] | binding [3] | Molecule |
| --- | --- | --- | --- |
| binds |  |  | TCA17, endogenous (from UniProt Q9SKS7) |
| no binding |  |  | TRAPPC13, endogenous (from UniProt O82263) |
| binds |  |  | TRS23, endogenous (from UniProt Q9LZ97) |
| binds |  |  | TRS31, endogenous (from UniProt Q9FGU1) |
|  | binds | binds | AtTRS130, endogenous (protein, UniProt F4K0C4 1-1259) MANYLAQFQTIKNSCDRLVAAVEDVCDLWPTVKGLFEEHQPLKRAFLTNKTRNPVFVENLPVEFILTTDARLRSRFPQEQYLFWFREPYATIVLVTCEDLDEFKNILKPRLKLIVQNDEREWFIVFVSKAHPSNDQATKNVKKVYAKLEVDFSSKKRERCCKLDVHGPEGNFWEDLELKITECIRNTLDRRAQFYEDEIRKLSEQRFMPIWNFCNFFILKESLAFIFEMAHLHEDALREYDELELCYLETVNMPGKQRDFGGFDGEDDQAVLLKPGSKPLTQIVQDDSFREFEFRQYLFACQSRLLFKLNRPFEVASRGYSFVISFAKALTLHESVLPFCMREVWVITACLALIEATASHHHDGVVAPDIEKEFFRLQGDLYSLSRVKFMRLGYLIGYGTDIEKSPLNSACLSMLPWPKPAVWPSLPQDASSEVLEKEKTILQATSRTKHFGIQRKALPLEPSVLLRVANRRRASLSTGNIPEMFDGRPSFTEGSGLEASPRTPSSLKVQAPPMSRTNSSPGNFESPLDRPMRLAEIFVAAEHALRLTISDHDLLKTLSSIQDFENKYLNLTKGAAENYHRSWWKRHGVVLDGEIAAVCFKHGKYDLAANSYEKVCALYAGEGWQDLLAEVLPNLAQCQKILDDQAGYMSSCVRLLSLDKGLFSSKERQAFQSEVVTLAHSEMKNPVPLDVSSLITFSGNTGPPLQLCDGDPGNLSVTVWSGFPDDITLDSLSLTLVATNNTDEGGQALKSSAATVLNPGRNTITFALPPQKPGSYVLGVVTGQIGRLRFRSHSFSKGGPADSDDFMSYEKPTRPILKVSKPRALVDLAAAVSSALLINEAQWIGIIVRPIAYSLKGAILHIDTGPGLKIEDSYGIEMERYMDADCDTGASKAEVFVEDSPVSSKRDSEVLNLCDGKIVFSDWASNVSSILWVPVRALSEKLARGSSSVTPLKQDILEGMRTVALKLEFGVHHNQIFERTIAAHFTDPFDVTTRVANKCNDGTLVLQVMLHSLVKANLIVLDVWLDLQDGFIHGQNDGRPTSTFFPLVVSPGSRAAVVFSICLDKSMSSEGKDLQLPESILNIKYGIHGDRAAGAHRPVDADHSETDTEGRDLVFKSAIVLQRPVLDPCLTVGFLPLPSDGLRVGKLITMQWRVERLKELKESEAVEQQHDEVLYEVNANSENWMIAGRKRGHVSLSEEQGSRVVISILCVPLVAGYVRPPQLGLPNVEEANVSSNPSGPHLVCVLPPLLSSSYCLPVK |

Like-named read-outs stand apart in the source and are kept apart here. Results are given in words; binding and its absence hold for the method and conditions named. In cells and extracts the contact can be indirect. These calls come from enrichment with a bait or labelling near it, and not all partners need be listed. For some assays here: A no says only that the protein was not detected with the bait.
